The chains behind the UniProt entries cited, without tags or fusion partners.
UniProt Q8NER1, whole entry, looked up: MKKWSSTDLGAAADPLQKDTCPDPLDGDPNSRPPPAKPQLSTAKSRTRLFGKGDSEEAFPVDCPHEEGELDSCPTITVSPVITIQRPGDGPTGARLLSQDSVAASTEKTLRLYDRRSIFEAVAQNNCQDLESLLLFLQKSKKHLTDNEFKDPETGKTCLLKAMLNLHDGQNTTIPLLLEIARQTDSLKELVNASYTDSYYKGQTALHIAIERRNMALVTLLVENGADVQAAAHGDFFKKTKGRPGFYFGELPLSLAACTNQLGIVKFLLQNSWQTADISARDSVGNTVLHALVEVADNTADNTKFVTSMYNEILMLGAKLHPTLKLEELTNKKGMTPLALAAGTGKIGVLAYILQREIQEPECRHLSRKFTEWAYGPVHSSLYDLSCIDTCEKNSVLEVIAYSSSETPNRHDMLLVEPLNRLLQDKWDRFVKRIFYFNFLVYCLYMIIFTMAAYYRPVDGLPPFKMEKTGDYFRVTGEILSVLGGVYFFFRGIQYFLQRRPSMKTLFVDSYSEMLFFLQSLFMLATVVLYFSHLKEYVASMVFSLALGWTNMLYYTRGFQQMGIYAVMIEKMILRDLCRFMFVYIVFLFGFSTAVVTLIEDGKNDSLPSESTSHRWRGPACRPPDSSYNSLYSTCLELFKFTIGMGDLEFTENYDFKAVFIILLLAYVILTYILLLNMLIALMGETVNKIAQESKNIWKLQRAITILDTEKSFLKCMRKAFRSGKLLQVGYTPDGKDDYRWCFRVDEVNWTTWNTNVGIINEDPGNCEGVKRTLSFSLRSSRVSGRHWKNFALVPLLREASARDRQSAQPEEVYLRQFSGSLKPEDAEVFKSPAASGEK

Screen size: about 320,000 compounds; about 620 (0.19%) were called active. The shares of active, inactive and inconclusive entries below differ from those in the screen. Cut-off read from the data, not from the text of the source: active = activation above about 80%; inconclusive = between about 30% and that limit; inactive = weaker than that.
These compounds were tested against Transient receptor potential cation channel subfamily V member 1 (Homo sapiens) (UniProt Q8NER1) (assay: HTS Assay for Compounds that Act as Agonists of the Vanilloid Receptor 1). Details: TRPV1-expressing cells, Fluo-8 calcium influx, agonist mode; at 8.33 µM, stronger effect = higher value.
Method in brief: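 Fluo-8 calcium influx in TRPV1-expressing cells, kinetic read (ex 480/em 520 nm). Compound added and read 3 min for agonist activity, followed by capsaicin at EC20 final and 2 min further read for enhancement.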
With `O=C(Nc1ccc(S(=O)(=O)NC2=NCCCCC2)cc1)c1ccc(Cl)cc1Cl` the activation was inconclusive: 35.7%. With `CCOc1ccc2nc(NC(=O)c3ccccn3)sc2c1` the activation was inconclusive: 35.1%. With `CCCN(C(=O)c1cc(S(=O)(=O)N(C)c2ccc(OCC)cc2)ccc1C)C1CCS(=O)(=O)C1` (stereo not given) the activation was inactive: 3.38%. In the case of `CCCN1C(=O)/C(=C/c2c(N3CCNC(=O)C3CC(=O)OCC)nc3c(C)cccn3c2=O)SC1=S` (stereo not given), the activation is reported as inconclusive: 30.8%. With `O=C(O)c1ccc(N=Nc2c(O)[nH]c3ccccc23)cc1` the activation was inactive: -4.52%. With `COc1ccc(CC(=O)NNC2=Nc3cccc4cccc2c34)cc1OC` the activation was inconclusive: 76.9%. `COc1ccc(N2CCN(CC(O)c3c[nH]c4ccc(OC)cc34)CC2C)cc1` (stereo not given) was tested, and the activation was inconclusive: 50.3%. `CC(C)c1ccc(/C=C/C(=O)NC2CCCCC2)cc1` was tested, and the activation was inconclusive: 61.3%. For `O=C(NCC1CCCO1)c1ccc2c(c1)N(Cc1ccccc1)C(=O)CS2` (stereo not given), the activation was inconclusive: 34.9%. With `CCC(NC(=O)c1oc2ccccc2c1COC)c1ccc(OC)cc1` (stereo not given) the activation was inconclusive: 30.3%. With `O=C(Nc1cc(Cl)ccc1Oc1ccccc1)c1ccc(F)cc1` the activation was inconclusive: 41.1%. For `COc1cc(-c2nnc(-c3ccc(N4CCOCC4)cc3)o2)cc(OC)c1OC`, the activation was inactive: 1.29%. `CC(C)(C)c1ccc(C(=O)N2CCCC2)s1` was tested, and the activation was inconclusive: 43.3%. `CCn1c(SCC(=O)Nc2nccs2)nnc1-c1ccco1` was tested, and the activation was inconclusive: 39.7%. `COc1ccc(N2CC(NC(=O)Nc3ccccc3)CC2=O)cc1` (stereo not given) was tested, and the activation was inconclusive: 31.2%. With `CN(c1cccc(NC(=O)c2ccc(C(C)(C)C)cc2)c1)S(C)(=O)=O` the activation was inconclusive: 69.6%. With `O=C(/C=C/c1ccccc1)Nc1cccnc1Cl` the activation was active: 84.2%. `O=C(NCCc1nc2ccccc2[nH]1)/C(=C/c1ccc2c(c1)OCO2)NC(=O)c1ccccc1Cl` was tested, and the activation was inactive: 23.8%. `CCn1c2ccccc2c2cc(/C=N/NC(=O)c3ccc(O)cc3)ccc21` was tested, and the activation was inconclusive: 47%. With `Cc1cc(C)cc(N(CC(=O)NC2CCCCC2)C(=O)c2ccc(C)s2)c1` the activation was inconclusive: 32.1%. With `CCCc1cc(N2CCOCC2)n2ncc(-c3ccccc3)c2n1` the activation was inconclusive: 37.9%. For `Cc1ccc2[nH]c(=O)c(C(c3nnnn3CC3CCCO3)N3CCOCC3)cc2c1` (stereo not given), the activation was inactive: -0.934%. In the case of `CCCCNC(=O)CCc1nc2cccnc2n1Cc1ccc(OC)cc1`, the activation is reported as inconclusive: 32.8%. In the case of `CC(C)CN=c1cc(-c2ccccc2)oc2ccc(Cl)cc12`, the activation is reported as inconclusive: 47.9%. With `O=C1CCC(C(=O)N2CCN(c3ccccc3Cl)CC2)CN1CC1CCCCC1` (stereo not given) the activation was inconclusive: 32.2%. `O=S(=O)(c1ccc(Cl)c(C(F)(F)F)c1)N1CCN(CC(O)COc2ccccc2F)CC1` (stereo not given) was tested, and the activation was inconclusive: 31.8%. `CCOc1cccc(-c2cc(=O)[nH][nH]2)c1` was tested, and the activation was inactive: -0.67%. With `COc1ccc(NC2CCCN(C(=O)c3cc(C)nc4cc(F)ccc34)C2)cc1` (stereo not given) the activation was inconclusive: 63.8%. `CCc1nc(Nc2ccc(N3CCN(C(C)=O)CC3)cc2)c2oc3ccccc3c2n1` was tested, and the activation was inconclusive: 34%. For `O=C(NCCN1CCOCC1)c1cc(Cl)ccc1Cl`, the activation was inactive: 0.475%. With `O=C(c1nc(-c2ccccc2)n(-c2ccccc2)n1)N1CCN(S(=O)(=O)c2ccccc2)CC1` the activation was inconclusive: 30.3%. With `COc1cccc(NC(=O)c2ccc(OC(F)(F)F)cc2)c1` the activation was inconclusive: 70.6%. In the case of `CCCCNc1c(-c2ccc(SC(C)CC)cc2)nc2ccccn12` (stereo not given), the activation is reported as inconclusive: 62.5%. With `O=C(NCc1ccncc1)c1ccc(Oc2ccccc2)cc1` the activation was active: 91.4%. With `CC(C)c1ccc(/C=C/C(=O)N2CCOCC2)cc1` the activation was active: 93.9%. In the case of `CC(=O)c1cccc(NC(=O)c2ccc(CN3CCc4ccccc4C3)cc2)c1`, the activation is reported as inconclusive: 55.3%. For `COc1cccc(N2CCN(C(=O)C3CCCN(c4ncnc5c4nc4n5CCCCC4)C3)CC2)c1` (stereo not given), the activation was inconclusive: 33.9%. `COc1ccc(CN(C(=O)c2ccc(C)cc2)c2cccc(N)c2)cc1` was tested, and the activation was inconclusive: 42.2%. `CCO[C@H]1OC(C(N)=O)=C[C@@H](C)[C@@H]1CCCO` was tested, and the activation was inactive: 3.72%. For `O=C(NCC(c1ccco1)N1CCc2ccccc21)c1ccccc1F` (stereo not given), the activation was inconclusive: 40.9%. In the case of `Cc1ccc(CN2CC(=O)N3[C@H]4c5ccccc5OC[C@@H]4[C@H](c4ccccc4)[C@]3(C)C2=O)cc1`, the activation is reported as inconclusive: 52.6%. `COc1ccc(CCN2CC(O)=C(c3nc4ccccc4c(=O)[nH]3)C2=N)cc1OC` was tested, and the activation was inactive: 0.4%. In the case of `CCOC(=O)[C@H]1[C@H]2COc3ccc(OC)cc3[C@@H]2N2C(=O)c3ccc(F)cc3NC(=O)[C@@]12C`, the activation is reported as active: 88.1%. `COc1cccc(/C=N/N=C(\N)c2nonc2N)c1O` was tested, and the activation was inactive: -1.39%. `O=C(c1cccs1)N1CCN(c2ncc(C(F)(F)F)cc2Cl)CC1` was tested, and the activation was inconclusive: 32%. `O=C(Cn1cc(C(F)(F)F)ccc1=O)NCCc1ccc(Cl)cc1Cl` was tested, and the activation was inactive: 13.6%. In the case of `CC1CCCN(C(=O)CSc2ncccn2)C1` (stereo not given), the activation is reported as inactive: -1.82%. For `O=C1CC(c2ccco2)CC2=C1C1c3ccccc3C(=O)N1c1ccccc1N2` (stereo not given), the activation was inconclusive: 39.6%. For `O=C(NC1CCCC1)c1cc(-c2ccccc2)on1`, the activation was inactive: 22.2%. For `O=C(NCCCCc1ccccc1)Nc1cccc(F)c1`, the activation was inconclusive: 56.9%. With `CCOC(=O)c1cnc2c(-c3ccc(Cl)cc3)cnn2c1C` the activation was inactive: 1.59%. In the case of `CCOc1ccc(C(C)=O)cc1COC(=O)c1ccccc1C(=O)N(C)Cc1ccccc1`, the activation is reported as inconclusive: 32.2%. In the case of `CN(CC(=O)Nc1cccc(F)c1)C(=O)c1ccccc1Cc1ccccc1`, the activation is reported as inconclusive: 36.2%. `c1ccc(CC2CCN(c3nnnn3-c3ccccc3)CC2)cc1` was tested, and the activation was inconclusive: 34.2%. For `O=S(=O)(c1ccccc1F)N1CCC(c2nc3ccccc3[nH]2)CC1`, the activation was inconclusive: 31.1%. In the case of `COCCCNc1nc(N)c([N+](=O)[O-])c(Nc2ccccc2OC)n1`, the activation is reported as inactive: 4.34%. For `COc1ccc(/C=C2\CCc3ccccc3C2=O)c(OC)c1OC`, the activation was inconclusive: 30.2%. `CCNC(=S)NCc1ccc(OC)c(OC)c1` was tested, and the activation was inactive: 8.64%. In the case of `NC(=O)c1ccccc1NC(=O)c1ccc2ccccc2c1`, the activation is reported as inconclusive: 66%. `CCOc1ccc(NC(=O)Nc2cc(-c3ccccc3)sc2C(=O)OC)cc1` was tested, and the activation was inconclusive: 39.6%. In the case of `CCCCN1C(=O)C2Cc3c([nH]c4ccccc34)CN2C1=S` (stereo not given), the activation is reported as inactive: 9.37%. For `CCCCC/C=C/C1=CC(=O)C[C@H](c2ccc(Cl)cc2)C1`, the activation was inconclusive: 51.9%. `CSc1nc(N2CCOCC2)c2c(c1C#N)CC(C)(C)OC2` was tested, and the activation was inconclusive: 31%. In the case of `CCC(=O)N1CCN(c2ccc(NC(=S)NC(=O)c3cc4ccccc4o3)cc2)CC1`, the activation is reported as inactive: 2.07%. For `Cc1ccc(C(=O)N/N=C/C=C/c2ccccc2)cc1`, the activation was inconclusive: 46.2%. `O=C(/C=C\c1cn(-c2ccccc2)nc1-c1ccccc1)Nc1nccs1` was tested, and the activation was inconclusive: 40.3%. With `CC(C)(C)c1nnc2sc(SCC(=O)NCc3ccco3)nn2c1=O` the activation was inactive: 0.43%. In the case of `COc1nc(NC(=O)c2ccc(F)cc2)nc(OC)c1-c1ccccc1`, the activation is reported as inconclusive: 57.1%. For `CCOC(=O)c1[nH]c(C)c(C(=O)Nc2ccc(Cl)cc2)c1C`, the activation was inconclusive: 30.7%. In the case of `CCC(C)c1ccc(C(C)NC(=S)NCc2ccc(F)cc2)cc1` (stereo not given), the activation is reported as inconclusive: 72.5%. In the case of `c1ccc(Nc2nc(Nc3ccccc3)nc(N3CCNCC3)n2)cc1`, the activation is reported as inactive: 2.09%. For `Cc1ccc(C(=O)NC(NC(=S)Nc2ccc(S(N)(=O)=O)cc2)C(Cl)(Cl)Cl)cc1` (stereo not given), the activation was inconclusive: 41.2%. With `CCN(CC)c1cc(C)c2cc(NC(=O)c3ccc(Br)o3)ccc2n1` the activation was inconclusive: 50.6%. For `CS(=O)(=O)N1CCC(C(=O)Nc2ccc(Cl)c(C(F)(F)F)c2)CC1`, the activation was inconclusive: 35%. `CCOC(=O)C1CCN(c2nc3ccccc3nc2C(C#N)C(=O)OC(C)COC)CC1` (stereo not given) was tested, and the activation was inconclusive: 35.6%. With `O=C(c1ccc([N+](=O)[O-])o1)N1CCN(c2nc3ccc(F)cc3s2)CC1` the activation was inconclusive: 55.5%. In the case of `CCN1C=C(Cc2ccc(F)cc2)C2=C(C1)C(c1ccc(F)cc1)C(C#N)=C(N)O2` (stereo not given), the activation is reported as inactive: 2.1%. With `CCCN1C(=O)c2ccc(C(=O)Nc3ccc4c(c3)OCO4)cc2C1=O` the activation was inconclusive: 51.4%. For `N#Cc1cc2c([nH]c1=S)CCCCCC2`, the activation was inactive: -1.68%. In the case of `CCCc1cc(C(=O)OCC(=O)N2CCN(c3ccc(OC)cc3)CC2)sc1C`, the activation is reported as inconclusive: 43.3%. With `COCCSc1ncnc2c1oc1nc3c(cc12)COC(C)(C)C3` the activation was inactive: -1.5%. In the case of `O=C(NCCSCc1ccco1)Nc1ccc(Cl)cc1`, the activation is reported as inconclusive: 60%. For `O=C1C(c2ccc(F)cc2)N(Cc2ccc3c(c2)OCO3)C(=O)CN1C1CCCC1` (stereo not given), the activation was inconclusive: 45%. In the case of `COc1ccc(CNC(=O)CN(C2CCCCC2)S(C)(=O)=O)cc1`, the activation is reported as inactive: -1.78%. For `O=C(N/N=C/c1ccc[nH]1)c1ccc2c(c1)OCO2`, the activation was inconclusive: 60.1%. In the case of `O=C(Nc1ccc(Cl)cc1)c1csc(Cc2ccccc2)n1`, the activation is reported as inconclusive: 46.5%. `O=C(COc1ccccc1Br)c1ccc2c(c1)OCO2` was tested, and the activation was inconclusive: 45.2%. With `CCOC(=O)N1CCC(NC(=O)c2cc(S(=O)(=O)N3CCOCC3)ccc2F)CC1` the activation was inconclusive: 37.2%. `CCCCCC1CC(=O)N(Cc2ccc(Cl)cc2)C(=O)N1` (stereo not given) was tested, and the activation was inconclusive: 32.2%. With `CCOC(=O)C1(Cc2ccccc2)CCN(Cc2cnn(C(C)C)c2)CC1` the activation was inactive: 5.23%.

From PubChem BioAssay AID540275 (National Center for Advancing Translational Sciences (NCATS), 2011)
Note: 0% is about no effect.
